This passage reports MIC results from patent publication US8906897B2, “Antimicrobial agents based on hemin derivatives” (Obschestvo S Ogranichennoi Otvetstvennostiyu …, priority 2009, dated 2014).

The subject of assay [1] is Staphylococcus epidermidis No. 533. The assay is described as follows: Specific activity against resistant bacterial strains. It is filed as cell-based. The note with it: NO.533, read-out: MICs for Vancomycin. The procedure: The tested agents were water-soluble hemin derivatives (compounds VII and XVIII) or DMSO-soluble derivatives (compounds VIII, XV, and XIV). Vancomycin was the reference compound. Each compound was tested in three replicas.
Sterile single-use flat-bottomed 96-well plates, Petri dishes, pipettes, tips, and test tubes (Pan-Eco, Moscow) were used in the study.
The nutritional media used were as follows. A working Mueller Hinton broth was prepared from dry media (Mueller Hinton broth, Acumedia, Baltimore) and sterilized by autoclaving at 121° C. for 15 min.
Staphylococcus aureus was cultured on the Tripticase Soy Agar (BBL) commercially available dry medium. Enterococcus faecalis was cultured on the Columbia Agar Base (BBL) commercially available dry medium. These media were sterilized by autoclaving at 121° C. for 15 min.
Bacterial inoculum was fixed and equal to 5×10^5 CFU/mL.
For water-soluble compounds, wells from 2nd through 8th were added with the solvent (water) in an amount of 15 μL per well, then the 1st well was added with 30 μL of the stock solution of the tested compound in water with a concentration of 1×10^3M, and the concentration was adjusted to 0.007×10^3 M by serial twofold dilutions. […]
Culture growth was evaluated visually by comparison of how microorganisms grew in the presence of tested compounds and in the absence of them. […]

The test system of assay [2] is Enterococcus faecium No. 569. The assay is described as above. Particulars: NO.569, read-out: MICs for Vancomycin. Format: cell-based.

In brackets after ≈: the same amount, converted by molar mass. Where only a bound is given, the exact number is not on record here.

With `CN[C@H](CC(C)C)C(=O)N[C@H]1C(=O)N[C@@H](CC(N)=O)C(=O)N[C@H]2C(=O)N[C@H]3C(=O)N[C@H](C(=O)N[C@H](C(=O)O)c4cc(O)cc(O)c4-c4cc3ccc4O)[C@H](O)c3ccc(c(Cl)c3)Oc3cc2cc(c3O[C@@H]2O[C@H](CO)[C@@H](O)[C@H](O)[C@H]2O[C@H]2C[C@](C)(N)[C@H](O)[C@H](C)O2)Oc2ccc(cc2Cl)[C@H]1O` [Vancomycin, reference compound], the MIC is 1 mg/L (≈ 0.69 µM) in assay [1] and over 32 mg/L in assay [2].
